This is one part of the list. Shown are side measurements of this screen, not its main read-out; they come without a call. Most of these compounds were active or inconclusive in the main read-out, so they are no random draw. The note in brackets gives the kind of curve behind each potency; many fits are weak.
Test: qHTS Assay for Lipid Storage Modulators in Drosophila S3 Cells;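 as to cell number change: cells counted by Cell Tracker Red CMTPX staining in the red channel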
Conditions: BODIPY lipid droplet fluorescence, 18-24 h; for cell number change: measured here: cell count max response, cells fed with added oleic acid
Outline: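 Drosophila S3 cells got compounds at several concentrations plus oleic acid (400 uM solution). Laser-scanning cytometry with 488 nm excitation read lipid droplets at 500-530 nm and cells at 575-640 nm. Percent activity was relative to 20 uM Triacsin C.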

[1] = measured here: lipid fluorescence (Fed channel) AC50, cells fed with added oleic acid
[2] = measured here: cell number channel AC50, cells fed with added oleic acid

Cc1nn(CCC(=O)NNC(=S)Nc2ccc(F)cc2)c(C)c1Br
AC50 [1]: 1.84 µM [rising, partial curve]

COc1ccc(C)cc1NC(=O)c1ccc(CN2CCN(c3ccccc3)CC2)cc1
cell number change: 7.89%

Cc1ccc(OCc2nc3c4c(ncn3n2)-c2ccccc2CC42CCCC2)cc1
cell number change: -7.57%
AC50 [1]: 13 µM [rising, partial curve]

O=C(O)c1ccccc1Sc1c([N+](=O)[O-])cc(C(F)(F)F)cc1[N+](=O)[O-]
cell number change: 3.1%

Cc1cccc(NCc2nc3ccccc3n2C)c1
cell number change: 21.4%
AC50 [2]: 0.082 µM [rising, full curve, poor fit]

CN(C)CCNC(=O)/C=C/c1cn(-c2ccccc2)nc1-c1cc2ccccc2oc1=O
cell number change: 23%
AC50 [2]: 0.461 µM [rising, full curve, poor fit]
AC50 [1]: 0.461 µM [rising, full curve, poor fit]

O=C(CCNS(=O)(=O)c1ccccc1)OCC(=O)c1ccc(Cl)cc1
cell number change: -7.6%
AC50 [2]: 0.291 µM [falling, full curve, poor fit]

COc1ccc(C(=O)NNC(=O)CCC(=O)Nc2ccc(C)cc2C)cc1
cell number change: 17.5%

O=C(Nc1cccc(-c2nc3cc(Cl)ccc3o2)c1)C1CCCO1 (stereo not drawn)
cell number change: 3.9%

CCN1CCN(CC(=O)NC2CCCC2)C(=O)C1=O
AC50 [1]: 32.6 µM [falling, single point]

COC(=O)c1c(C)[nH]c(C(=O)OCc2ccc(F)cc2)c1C
cell number change: -38.9%
AC50 [2]: 5.17 µM [falling, partial curve, poor fit]
AC50 [1]: 0.164 µM [falling, full curve, poor fit]

CC1=C(C(=O)OCc2cc(C)on2)N2C(=O)[C@@H](NC(=O)OCc3cc(C)on3)[C@H]2SC1
cell number change: -2.17%
AC50 [1]: 2.91 µM [falling, single point]

CC(C)CNC(=O)COC(=O)c1ccc(Cl)c(S(N)(=O)=O)c1
cell number change: -11.2%

Cc1cccc(N(C(=O)c2nsc(Cl)c2Cl)C(C(=O)NC2CCCC2)c2ccc(O)cc2)c1C (stereo not drawn)
cell number change: 7.96%
AC50 [1]: 25.9 µM [rising, single point]

CC1Cc2ccccc2N1C(=O)c1cnsn1 (stereo not drawn)
cell number change: -9.17%
AC50 [2]: 0.651 µM [falling, single point]
AC50 [1]: 29.1 µM [rising, single point]

CC1CN(C(=O)N(C)C)CCN1C(=O)N(C)C (stereo not drawn)
cell number change: 0.74%
AC50 [1]: 29.1 µM [falling, single point]

O=C(CN1C(=O)C2CC=CCC2C1=O)Nc1nnc(SCc2ccc(Cl)cc2)s1 (stereo not drawn)
cell number change: 26.2%

Fc1ccccc1C(c1nnnn1Cc1ccc2c(c1)OCO2)N1CCN(Cc2ccco2)CC1 (stereo not drawn)
cell number change: -22.9%
AC50 [1]: 16.4 µM [rising, single point]

O=C(NCCc1ccc(F)cc1)N1CCOCC1
cell number change: 7.94%

CCOC(=O)N1CCC2(CC1)C(C#N)=C(N)Oc1n[nH]c(C)c12
AC50 [2]: 6.51 µM [falling, single point]
AC50 [1]: 6.51 µM [falling, single point]

COCCn1c(=NC(=O)c2cc(Cl)sc2Cl)sc2cc(S(N)(=O)=O)ccc21
cell number change: 40.8%
AC50 [2]: 9.2 µM [rising, single point]
AC50 [1]: 13 µM [falling, single point]

COC(=O)c1cc(S(=O)(=O)NCc2ccc3c(c2)OCO3)c[nH]1
cell number change: -8.68%

CCOC(=O)N1CCC(NC(=O)c2cc(C(=O)NCc3ccc(F)cc3)ccc2CO)CC1
cell number change: -47.7%
AC50 [2]: 20.6 µM [falling, single point]

O=C(Nc1ccccc1)Nc1cccc(C(F)(F)F)c1
cell number change: -46%
AC50 [2]: 0.00461 µM [falling, full curve, poor fit]
AC50 [1]: 0.82 µM [falling, full curve]

CCS(=O)(=O)c1ccc2oc(SCC(=O)NC3CCCC(C)C3C)nc2c1 (stereo not drawn)
cell number change: -61.9%
AC50 [2]: 23.1 µM [falling, single point]

COc1ccc(N=c2scc(-c3ccc(S(=O)(=O)N4CCOCC4)cc3)n2CCCO)cc1
cell number change: -57.9%
AC50 [2]: 8.2 µM [falling, partial curve]
AC50 [1]: 5.17 µM [falling, partial curve]

O=C(O)CCCNc1c(C(=O)Nc2ccc(Cl)cc2)cc([N+](=O)[O-])cc1[N+](=O)[O-]
cell number change: 9.97%

COc1ccc(CCNC(=O)COC(=O)C2CC2C)cc1OC (stereo not drawn)
cell number change: -33.5%
AC50 [2]: 18.4 µM [falling, partial curve]

Nc1cnn(Cc2ccc(F)cc2)c1
cell number change: -14.5%
AC50 [2]: 2.59 µM [rising, partial curve]

O=C(NC(=S)NCC1CCCO1)c1cccc([N+](=O)[O-])c1 (stereo not drawn)
cell number change: -56.7%
AC50 [2]: 18.4 µM [falling, single point]
AC50 [1]: 29.1 µM [falling, single point]

C/C(N)=C(/C#N)C(=O)CSc1nnc(Nc2cccc(C)c2C)s1
cell number change: -25%
AC50 [1]: 0.146 µM [falling, full curve, poor fit]

O=C(N/N=C/C=C/c1ccc2c(c1)OCO2)c1ccc([N+](=O)[O-])cc1
cell number change: -2.85%
AC50 [2]: 0.092 µM [rising, full curve, poor fit]
AC50 [1]: 0.13 µM [rising, full curve, poor fit]

C#CC[N+]1(CC#Cc2ccccc2)CCOCC1
cell number change: -3.04%
AC50 [2]: 0.326 µM [rising, full curve, poor fit]

Cc1ccc(S(=O)(=O)N2CCN(C(=O)Cn3c(=O)cnc4ccccc43)CC2)cc1
cell number change: -9.9%
AC50 [1]: 2.31 µM [falling, single point]

Cc1nc2c3ccccc3nc(SCC(=O)c3ccc(Cl)cc3)n2n1
cell number change: 31.4%
AC50 [2]: 1.16 µM [rising, full curve]
AC50 [1]: 3.26 µM [rising, partial curve]

O=C(CCNC(=O)c1ccc(Cl)cc1)NCC(c1ccco1)N1CCCCC1 (stereo not drawn)
cell number change: 9.45%
AC50 [1]: 0.82 µM [falling, full curve, poor fit]

O=C(CN1CCN(C(=O)C2CCC2)CC1)Nc1ccc(F)cc1
cell number change: 23.1%
AC50 [1]: 0.164 µM [rising, full curve]

CC(=O)C1=C(O)C(=O)N(CCN2CCOCC2)C1c1ccccc1 (stereo not drawn)
AC50 [1]: 23.1 µM [falling, partial curve]
